Experiments:
[1] = Fluorescence of indicator under UV / IR; type: physicochemical
[2] = Print evaluation of fixer+indicator on HM, LL and FM media viewed under UV
[3] = Nozzle pattern observation of cationic polymer fixer spiked with marker; settings: visible indicator in fixer
[4] = % reflectance of fixer+indicator printed area (Cary Spectrometer, diffuse mode); settings: for Changes in %R @ ~260 nm: on HM, LL and FM

Compound | Fluorescent under UV? [1] | further results
CCN(CC)CCc1c(C)c2ccc(O)cc2oc1=O.Cl [3-[2-(diethylamino)ethyl]-7-hydroxy-4-methylcoumarin hydrochloride] | Yes | 
CN(C)c1ccc2c(C(F)(F)F)cc(=O)oc2c1 [Coumarin 152] | Yes | 
CCN=C1C=CC(=C(c2ccc(N(CC)CC)cc2)c2ccc(N(CC)CC)cc2)c2ccccc21.Cl [Victoria Blue BO] | No | Print Evaluation, visibility under IR [2]: Visible under IR
Variamine Blue | No | 
O=S(=O)([O-])c1cc(Nc2nc(Nc3ccccc3)nc(N(CCO)CCO)n2)ccc1/C=C/c1ccc(Nc2nc(Nc3ccccc3)nc(N(CCO)CCO)n2)cc1S(=O)(=O)[O-].[Na+].[Na+] [FluorescentBrightner28] | Yes | 
CCN1/C(=C/C=C2\CCC(/C=C/c3sc4ccc(Cl)cc4[n+]3CC)=C2N(c2ccccc2)c2ccccc2)Sc2ccc(Cl)cc21.[O-][Cl+3]([O-])([O-])[O-] [IR140] | No | 
CCN(CC)c1ccc(/C=C/C2=[N+](C)c3ccccc3C2(C)C)cc1.[Cl-] [Basic Violet 16] |  | Loading needed to see the nozzle pattern [3]: ≥ 750 ppm
CC1(C)C(/C=C/C=C/C=C/C=C2\N(CCCCS(=O)(=O)O)c3ccc4ccccc4c3C2(C)C)=[N+](CCCCS(=O)(=O)[O-])c2ccc3ccccc3c21 [Indocyanine Green] | No | 
Cc1cc(=O)oc2cc(O)c(O)cc12 [4-Methylesculetin] | No | 
Nc1ccc(C(=O)O)cc1 [4-Aminobenzoic acid (PABA), 4-Aminobenzoic acid] | No | Reflectance at ~260 nm vs media ([4]; Fortune Matte): slightly high reflectance than the media alone; Reflectance at 260 nm or so ([4]; Hammermill Fore DP, 0.1% PABA, 1 ppm Tinosorb FR): slight decrease in reflectance; Changes in %R @ ~260 nm [4]: Some changes in; Changes in %R @ ~260 nm ([4]; listed as PABA): slight difference
Cc1ccc2c(c1)sc(-c1ccc(N(C)C)cc1)[n+]2C.[Cl-] [Thioflavin T] | No | 
CCN(CC)c1ccc2cc(-c3nc4ccccc4[nH]3)c(=O)oc2c1 [Coumarin 7] | Yes | 
CN(C)c1ccc(C=Cc2ccccn2)cc1 [2-[4-(Dimethylamino)styryl]pyridine] | No | 
Cc1cc2nc3[nH]c(=O)[nH]c(=O)c3nc2cc1C [Lumichrome] | Yes | 
Cc1ccc2nc(-c3ccc(N=NNc4ccc(-c5nc6ccc(C)c(S(=O)(=O)[O-])c6s5)cc4)cc3)sc2c1S(=O)(=O)[O-].[Na+].[Na+] [Direct Yellow 9] | No | 
Cc1cc(O)nc2cc(N)ccc12 [Carbostyril 124] | Yes | 
CCOc1ccc2c(ccc(/C=C/c3cccc([N+](=O)[O-])c3)[n+]2C)c1.COS(=O)(=O)[O-] [Pinacryptol Yellow] | No | 
